Data taken from PubChem BioAssay AID1347075 (National Center for Advancing Translational Sciences (NCATS), 2019).
The campaign covered roughly 400,000 compounds. About 5,500 (1.4%) were called active. The inconclusive results got no clear call from the source; some entries with a clear call stand among them for comparison. Calls follow the shape of the dose curve; as a rule, active = well fitted cell-killing curve with a large enough effect; inconclusive = small, poorly fitted or top-dose-only effect, or effect the other way; inactive = flat fitted curve, though single readings scatter. Potencies of inconclusive entries are doubtful fits and often do not repeat.

Assay: qHTS assay for MDR1-selective chemotherapeutics: Primary screen using the parental adenocarcinoma cell KB-3-1; also: nearly all actives have a fitted effect of over 60% in size
Details: KB-3-1 viability, CellTiter-Glo ATP luminescence, 72 h; series mostly up to 46.1 µM
Method in brief: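 Parental KB-3-1 adenocarcinoma cells in phenol-red-free DMEM with 10% FBS were pin-treated with compounds at several concentrations, incubated 72 h at 37 °C, and viability read by CellTiter-Glo luminescence; concentration-effect curves were fitted after normalization.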
Potency is read from the fitted curve at half-maximal effect.

With COc1ccccc1-c1cc(C(F)(F)F)nc(S(=O)(=O)CCCC(=O)NC(C)C)n1 as the compound, how does the Potency read?
The Potency was inconclusive: 25.9 µM [cytotoxic, single point].

Which Potency does the source give for Clc1ccc2nccnc2c1 here?
The Potency was inconclusive: 29.1 µM [cytotoxic, single point].

With Cc1ccc(C)c(N2CCN(C(=O)c3csc4ccccc34)CC2)c1 as the compound, how does the Potency read?
The Potency was inconclusive: 20.6 µM [cytotoxic, single point].

For CCN1CCN(c2ccc(S(=O)(=O)N3CCCCC3)cc2NC(=O)COc2ccc(F)cc2Cl)CC1, which Potency is on record?
The Potency was inconclusive: 29.1 µM [cytotoxic, single point].

With N=c1c(S(=O)(=O)c2ccc(Cl)cc2)cc2c(=O)n3ccccc3nc2n1Cc1ccco1 as the compound, how does the Potency read?
Its Potency is inconclusive: 32.6 µM [cytotoxic, single point].

Which Potency does the source give for O=C(CSc1nnnn1-c1ccc2c(c1)OCO2)NCc1ccccc1 here?
Its Potency is active: 7.31 µM.

Which Potency does the source give for CCCCc1ccc(NC(=O)CSc2nc(=O)n(CCN3CCOCC3)c3c2CCC3)cc1 here?
Its Potency is “inactive”.

For COc1ccc(CC(N)c2csc(NC(=O)Nc3ccccc3Cc3ccccc3)n2)cc1 (stereo unspecified), which Potency is on record?
Its Potency is inconclusive: 29.1 µM [cytotoxic, single point].

Which Potency does the source give for S=C(Nc1ccc(Cl)c(Cl)c1)NN1CCOCC1 here?
Its Potency is “inactive”.

For O=C1NC[C@@H](CCCCN2CCN(CC3CCCCC3)C(=O)C2=O)N(CC2CCCCC2)C1=O, which Potency is on record?
Its Potency is inconclusive: 29.1 µM [rising, single point].

Which Potency does the source give for COc1cc(C)c2ccccc2n1 here?
The Potency was inconclusive: 25.9 µM [cytotoxic, single point].

With COc1ccc(CN2CN=C(Nc3nc4ccccc4s3)NC2)cc1 as the compound, how does the Potency read?
Its Potency is “inactive”.

Which Potency does the source give for COC(=O)c1cc(O)cc(OC)c1Oc1cc(C)cc(O)c1C(=O)O here?
Its Potency is inconclusive: 29.1 µM [cytotoxic, single point].

For O=C(c1cnn2c1NC(=C1CC1)C=C2C(F)F)N1CCc2ccccc21, which Potency is on record?
Its Potency is inconclusive: 0.82 µM [cytotoxic, full curve, poor fit].

With O=C(c1ccc(Cl)cc1)N1CCC(O)(CSc2ccc(Cl)cc2Cl)CC1 as the compound, how does the Potency read?
Its Potency is inconclusive: 29.1 µM [cytotoxic, single point].

For COC(=O)c1ccc(NC(=S)NC(=O)c2cc(-c3ccccc3)nc3ccccc23)cc1, which Potency is on record?
The Potency was “inactive”.

With O=C(Nc1ccc(Cl)c(Cl)c1)N(CCCN1CCOCC1)Cc1cccs1 as the compound, how does the Potency read?
The Potency was inconclusive: 29.1 µM [cytotoxic, single point].

For COc1ccc(C(=O)c2sc(Nc3ccccc3)nc2N)cc1OC, which Potency is on record?
The Potency was inconclusive: 23.1 µM [cytotoxic, single point].

Which Potency does the source give for O=c1[nH]c2ccc(Cl)cc2c(=O)n1Cc1ccco1 here?
Its Potency is “inactive”.

For Cc1ccc(C)c(C(C)NC(=S)NC2CCCCC2)c1 (stereo unspecified), which Potency is on record?
Its Potency is inconclusive: 18.4 µM [cytotoxic, single point].

Which Potency does the source give for C=CCC1(CC=C)CCCN1C(=O)c1cc(COc2ccc(-n3cncn3)cc2)on1 here?
Its Potency is inconclusive: 4.11 µM [cytotoxic, partial curve, poor fit].

Which Potency does the source give for O=C(NCc1cccs1)c1cc2c(s1)-c1ccccc1OC2 here?
Its Potency is inconclusive: 29.1 µM [cytotoxic, single point].

Which Potency does the source give for Cc1ccc(C)c(S(=O)(=O)N2CCCOC2CNC(=O)C(=O)NCc2ccco2)c1 (stereo unspecified) here?
Its Potency is inconclusive: 29.1 µM [cytotoxic, single point].

With O=[N+]([O-])c1ccc(Sc2cccc3cccnc23)c([N+](=O)[O-])c1 as the compound, how does the Potency read?
The Potency was inconclusive: 3.26 µM [cytotoxic, full curve].

For CCCn1nnc(NC(=O)c2cc(Br)ccc2OC)n1, which Potency is on record?
The Potency was inconclusive: 23.1 µM [rising, partial curve, poor fit].

With COc1cc(CN(C)c2ncnc3sccc23)ccc1OC(F)F as the compound, how does the Potency read?
Its Potency is inconclusive: 9.2 µM [cytotoxic, partial curve].

With Cc1cccc2cc(CN(Cc3cccs3)S(=O)(=O)c3ccc4c(c3)OCCO4)c(=O)[nH]c12 as the compound, how does the Potency read?
The Potency was inconclusive: 29.1 µM [cytotoxic, single point].

With CN(C(=O)c1cccc(NC(=O)Cc2ccc(NC(=O)C3CCCN(C(=O)CCc4ccccc4)C3)cc2)c1)C1CCCCC1 (stereo unspecified) as the compound, how does the Potency read?
Its Potency is inconclusive: 2.91 µM [cytotoxic, partial curve, poor fit].

Which Potency does the source give for CCCN(C(=O)Cn1cnc2sc(C)c(S(=O)(=O)N3CCN(c4ncccn4)CC3)c2c1=O)c1cccc(C)c1 here?
The Potency was “inactive”.

For CCOC(=O)C1C(=O)CC(C)(O)C(C(=O)OCC)C1c1ccc(N(CC)CC)cc1 (stereo unspecified), which Potency is on record?
Its Potency is “inactive”.

For CC1CCCCN1S(=O)(=O)c1ccc(C(=O)Nc2nnc(-c3ccco3)o2)cc1 (stereo unspecified), which Potency is on record?
The Potency was inconclusive: 20.6 µM [cytotoxic, single point].

Which Potency does the source give for CC(C)=CCn1c2ccc(NC(=O)Nc3cccnc3)cc2c(=O)n1C here?
Its Potency is “inactive”.

With COc1ccc(/C=N/Nc2nc(N3CCCC3)nc(N3CCCC3)n2)c(OC)c1OC as the compound, how does the Potency read?
Its Potency is “inactive”.

For Cc1cccc(CNc2ncnc3ccc(-c4ccc5c(c4)OCCO5)cc23)c1, which Potency is on record?
The Potency was active: 8.2 µM.

Which Potency does the source give for O=C(Nc1cccnc1)c1cccc(S(=O)(=O)N2CCc3ccccc32)c1 here?
The Potency was inconclusive: 23.1 µM [cytotoxic, single point].

Which Potency does the source give for COc1ccc(C(=O)N2CCc3cc(OC)c(OC)cc3C2c2ccc(OC)c(OC)c2)cc1 (stereo unspecified) here?
Its Potency is inconclusive: 23.1 µM [cytotoxic, single point].

Which Potency does the source give for CS(=O)(=O)N1CCCC(c2nc(-c3ccc(S(=O)(=O)NCc4ccccc4)cc3)no2)C1 (stereo unspecified) here?
The Potency was inconclusive: 3.26 µM [cytotoxic, full curve, poor fit].

Which Potency does the source give for COc1ccc(OC)c(S(=O)(=O)Nc2ccc3[nH]c(=O)[nH]c3c2)c1 here?
Its Potency is inconclusive: 29.1 µM [cytotoxic, single point].

With COc1ccc(C(=O)On2c(-c3ccc(Br)cc3)nc3ccccc3c2=O)cc1 as the compound, how does the Potency read?
The Potency was inconclusive: 18.4 µM [cytotoxic, single point].

For O=C(CN1CCc2ccccc2C1)Nc1ccccc1C(F)(F)F, which Potency is on record?
Its Potency is “inactive”.

For C/C(=N\NC(=O)c1ccccc1F)c1ccccn1, which Potency is on record?
Its Potency is inconclusive: 23.1 µM [cytotoxic, single point].

Which Potency does the source give for CCOC(=O)C(C)Sc1nc2c(cnn2-c2ccc(C)cc2)c(=O)[nH]1 (stereo unspecified) here?
The Potency was inconclusive: 29.1 µM [cytotoxic, single point].

With COc1ccc2c(c1)CCc1c(C(=O)NCCN3CCOCC3)noc1-2 as the compound, how does the Potency read?
Its Potency is “inactive”.

Which Potency does the source give for COC(=O)C(NC(=O)c1ccccc1Cl)(Nc1ncc(S(=O)(=O)c2ccc([N+](=O)[O-])cc2)s1)C(F)(F)F (stereo unspecified) here?
The Potency was inconclusive: 29.1 µM [cytotoxic, single point].

With COc1ccc(-c2csc(NC(C)c3nc4cc(Cl)c(Cl)cc4n3CCCO)n2)cc1 (stereo unspecified) as the compound, how does the Potency read?
The Potency was inconclusive: 18.4 µM [cytotoxic, single point].

With COc1ccc(C(C(=O)NCc2ccccc2)N(C(=O)c2snc(C(N)=O)c2N)c2ccccc2OC)cc1 (stereo unspecified) as the compound, how does the Potency read?
Its Potency is inconclusive: 2.31 µM [cytotoxic, partial curve, poor fit].

With COCCn1c(SCC(N)=O)nc2c(c1=O)SC(C)C2 (stereo unspecified) as the compound, how does the Potency read?
Its Potency is inconclusive: 0.651 µM [rising, full curve].

With CC1CCCCN1C(=O)CSc1nnc(-c2ccccc2O)o1 (stereo unspecified) as the compound, how does the Potency read?
The Potency was active: 13 µM.

For COc1ccccc1NCc1nnc2n1CCCCC2, which Potency is on record?
Its Potency is “inactive”.

Which Potency does the source give for CCN=C1SC(C(=O)Nc2cccc(Br)c2)CC(=O)N1CC (stereo unspecified) here?
The Potency was “inactive”.

For CCOC(=O)C1CCCN(S(=O)(=O)c2cc3c4c(c2)CCN4C(=O)CC3)C1 (stereo unspecified), which Potency is on record?
Its Potency is “inactive”.

For Fc1ccc(C(c2nnc(-c3ccccc3)o2)N2CCN(c3ccccc3)CC2)c(Cl)c1 (stereo unspecified), which Potency is on record?
The Potency was inconclusive: 29.1 µM [cytotoxic, single point].

Which Potency does the source give for COCCn1ccc2c(OCC(=O)Nc3cc(OC)ccc3OC)cccc2c1=O here?
The Potency was “inactive”.

With COc1cc([C@@H]2c3cc4c(cc3[C@H](O)[C@H]3COC(=O)[C@@H]23)OCO4)cc(OC)c1OC as the compound, how does the Potency read?
Its Potency is active: 1.84 µM.

Which Potency does the source give for COc1cc(Cl)c(C)cc1NC(=O)c1nn(-c2ccc(C)cc2)c(=O)n(C)c1=O here?
The Potency was “inactive”.

Which Potency does the source give for O=Cc1c(N2CCN(c3cccc(Cl)c3)CC2)nc2ccccn2c1=O here?
Its Potency is inconclusive: 20.6 µM [cytotoxic, partial curve, poor fit].

For CCCOC(=O)c1c(NC(=O)c2cc3nc(-c4ccc(OC)cc4)cc(C(F)(F)F)n3n2)sc2c1CCCC2, which Potency is on record?
The Potency was inconclusive: 18.4 µM [rising, partial curve].

Which Potency does the source give for CC(C)CC(=O)Nc1ccccc1N1CCN(c2ccccc2)CC1 here?
The Potency was inconclusive: 29.1 µM [cytotoxic, single point].

With O=C1N[C@@H](c2ccccc2)COC(=O)[C@@H](Cc2ccc(F)cc2)C/C=C\C[C@@H]1CC(=O)N(CCO)Cc1ccccc1 as the compound, how does the Potency read?
The Potency was inconclusive: 29.1 µM [cytotoxic, single point].

With C=CCN1C(=O)NC(c2ccc(OC)cc2)(C(F)(F)F)S/C1=C(\C#N)c1nnc(N2CCOCC2)n1-c1ccccc1 (stereo unspecified) as the compound, how does the Potency read?
Its Potency is “inactive”.

With COc1ccc2oc(=O)c(C(=O)N3CCN(c4cc(Cl)ccc4Cl)CC3)cc2c1 as the compound, how does the Potency read?
The Potency was “inactive”.

Which Potency does the source give for CC1CCCN(c2ccc3nc4ccccc4c(=O)n3n2)C1 (stereo unspecified) here?
Its Potency is inconclusive: 29.1 µM [cytotoxic, single point].

For CCOC(=O)c1ccc(NC(=O)C(=O)NCCc2ccc(OC)cc2)cc1, which Potency is on record?
Its Potency is “inactive”.

For CCOc1ccccc1NC(=O)C(=O)N/N=C/c1cc(Br)ccc1O, which Potency is on record?
The Potency was inconclusive: 4.61 µM [cytotoxic, partial curve].

Which Potency does the source give for Nc1nc(SCC(=O)c2ccc(Cl)cc2)c2ncn(C3OC(CO)C(O)C3O)c2n1 (stereo unspecified) here?
Its Potency is inconclusive: 20.6 µM [cytotoxic, single point].

Which Potency does the source give for COc1ccc(-c2cc([C@H]3[C@@H]4C=CCC[C@@]4(C)C(=O)N3Cc3ccccc3)ccc2F)cc1OC here?
Its Potency is inconclusive: 18.4 µM [cytotoxic, single point].
